Measured values as given in the supplement of paper PMC8728848.
The other results are listed elsewhere or left out.

Columns and labels:
Assay in all cases: glycan array binding signal (z-score within array); higher = stronger binding
Conditions in all cases: glycan notation: IUPAC condensed, linker removed
[1] = target: Man(a1-2)Man(a1-3)[Man(a1-2)Man(a1-6)]Man(a1-6)[Man(a1-2)Man(a1-2)Man(a1-3)]Man(b1-4)GlcNAc(b1-4)GlcNAc
In short: (§1)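 Negative Z-scores can be read as non-binding. The Z-score is calculated within each array and then averaged across arrays of one protein sequence at different concentrations or buffers and across linkers. Arrays, 3228 in all, were curated from the Consortium for Functional Glycomics database and kept only where the protein sequence was available.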

[2] = target: Man(a1-2)Man(a1-3)[Man(a1-6)]Man(a1-6)[Man(a1-2)Man(a1-3)]Man(b1-4)GlcNAc(b1-4)GlcNAc
In short: as §1

[3] = target: Man(a1-2)Man(a1-6)[Man(a1-3)]Man(a1-6)[Man(a1-2)Man(a1-2)Man(a1-3)]Man
In short: as §1

[4] = target: Man(a1-2)Man(a1-6)[Man(a1-3)]Man(a1-6)[Man(a1-2)Man(a1-2)Man(a1-3)]Man(b1-4)GlcNAc(b1-4)GlcNAc
In short: as §1

Man(a1-3)[Man(a1-6)]Man = target: Man(a1-3)[Man(a1-6)]Man
In short: as §1

[5] = target: Man(a1-3)[Man(a1-6)]Man(a1-6)[Man(a1-2)Man(a1-3)]Man(b1-4)GlcNAc(b1-4)GlcNAc
In short: as §1

[6] = target: Man(a1-3)[Man(a1-6)]Man(a1-6)[Man(a1-3)]Man
In short: as §1

[7] = target: Man(a1-3)[Man(a1-6)]Man(a1-6)[Man(a1-3)]Man(b1-4)GlcNAc(b1-4)GlcNAc
In short: as §1

[8] = target: Man(a1-3)[Man(a1-6)]Man(b1-4)GlcNAc(b1-4)GlcNAc
In short: as §1

Man(a1-6)Man = target: Man(a1-6)Man
In short: as §1

Man(b1-4)GlcNAc = target: Man(b1-4)GlcNAc
In short: as §1

Neu5Ac(a2-3)Gal = target: Neu5Ac(a2-3)Gal
In short: as §1

[9] = target: Neu5Ac(a2-3)Gal(b1-3)GalNAc
In short: as §1

[10] = target: Neu5Ac(a2-3)Gal(b1-3)GalNAc(b1-3)Gal(a1-4)Gal(b1-4)Glc
In short: as §1

[11] = target: Neu5Ac(a2-3)Gal(b1-3)GalNAc(b1-4)[Neu5Ac(a2-3)]Gal(b1-4)Glc
In short: as §1

[12] = target: Neu5Ac(a2-3)Gal(b1-3)GalNAc(b1-4)[Neu5Ac(a2-8)Neu5Ac(a2-3)]Gal(b1-4)Glc
In short: as §1

[13] = target: Neu5Ac(a2-3)Gal(b1-3)GalNAc6S
In short: as §1

[14] = target: Neu5Ac(a2-3)Gal(b1-3)GlcNAc
In short: as §1

[15] = target: Neu5Ac(a2-3)Gal(b1-3)GlcNAc(b1-2)Man(a1-3)[Neu5Ac(a2-3)Gal(b1-3)GlcNAc(b1-2)Man(a1-6)]Man(b1-4)GlcNAc(b1-4)GlcNAc
In short: as §1

[16] = target: Neu5Ac(a2-3)Gal(b1-3)GlcNAc(b1-3)Gal(b1-3)GlcNAc
In short: as §1

[17] = target: Neu5Ac(a2-3)Gal(b1-3)GlcNAc(b1-3)Gal(b1-4)GlcNAc
In short: as §1

[18] = target: Neu5Ac(a2-3)Gal(b1-3)GlcNAc(b1-3)GalNAc
In short: as §1

[19] = target: Neu5Ac(a2-3)Gal(b1-3)GlcNAc6S
In short: as §1

[20] = target: Neu5Ac(a2-3)Gal(b1-3)[Fuc(a1-4)]GlcNAc
In short: as §1

[21] = target: Neu5Ac(a2-3)Gal(b1-3)[Fuc(a1-4)]GlcNAc(b1-3)Gal(b1-3)[Fuc(a1-4)]GlcNAc
In short: as §1

[22] = target: Neu5Ac(a2-3)Gal(b1-3)[Fuc(a1-4)]GlcNAc(b1-3)Gal(b1-4)[Fuc(a1-3)]GlcNAc
In short: as §1

[23] = target: Neu5Ac(a2-3)Gal(b1-3)[Neu5Ac(a2-3)Gal(b1-4)]GlcNAc
In short: as §1

[24] = target: Neu5Ac(a2-3)Gal(b1-3)[Neu5Ac(a2-6)]GalNAc
In short: as §1

Neu5Ac(a2-3)Gal(b1-4)Glc = target: Neu5Ac(a2-3)Gal(b1-4)Glc
In short: as §1

[25] = target: Neu5Ac(a2-3)Gal(b1-4)GlcNAc
In short: as §1

[26] = target: Neu5Ac(a2-3)Gal(b1-4)GlcNAc(b1-2)Man(a1-3)[GlcNAc(b1-2)Man(b1-4)GlcNAc(b1-2)Man(a1-6)]Man(b1-4)GlcNAc(b1-4)GlcNAc
In short: as §1

[27] = target: Neu5Ac(a2-3)Gal(b1-4)GlcNAc(b1-2)Man(a1-3)[Neu5Ac(a2-6)Gal(b1-4)GlcNAc(b1-2)Man(a1-6)]Man(b1-4)GlcNAc(b1-4)GlcNAc
In short: as §1

[28] = target: Neu5Ac(a2-3)Gal(b1-4)GlcNAc(b1-3)Gal
In short: as §1

[29] = target: Neu5Ac(a2-3)Gal(b1-4)GlcNAc(b1-3)Gal(b1-3)GlcNAc
In short: as §1

[30] = target: Neu5Ac(a2-3)Gal(b1-4)GlcNAc(b1-3)Gal(b1-4)GlcNAc
In short: as §1

[31] = target: Neu5Ac(a2-3)Gal(b1-4)GlcNAc(b1-3)Gal(b1-4)GlcNAc(b1-3)Gal(b1-4)GlcNAc
In short: as §1

[32] = target: Neu5Ac(a2-3)Gal(b1-4)GlcNAc(b1-3)Gal(b1-4)[Fuc(a1-3)]GlcNAc
In short: as §1

[33] = target: Neu5Ac(a2-3)Gal(b1-4)GlcNAc(b1-3)GalNAc
In short: as §1

[34] = target: Neu5Ac(a2-3)Gal(b1-4)GlcNAc(b1-6)[Gal(b1-3)]GalNAc
In short: as §1

[35] = target: Neu5Ac(a2-3)Gal(b1-4)GlcNAc(b1-6)[Neu5Ac(a2-3)Gal(b1-3)]GalNAc
In short: as §1

[36] = target: Neu5Ac(a2-3)Gal(b1-4)GlcNAc6S
In short: as §1

[37] = target: Neu5Ac(a2-3)Gal(b1-4)[Fuc(a1-3)]GlcNAc
In short: as §1

[38] = target: Neu5Ac(a2-3)Gal(b1-4)[Fuc(a1-3)]GlcNAc(b1-3)Gal
In short: as §1

[39] = target: Neu5Ac(a2-3)Gal(b1-4)[Fuc(a1-3)]GlcNAc(b1-3)Gal(b1-4)GlcNAc
In short: as §1

[40] = target: Neu5Ac(a2-3)Gal(b1-4)[Fuc(a1-3)]GlcNAc(b1-3)Gal(b1-4)[Fuc(a1-3)]GlcNAc(b1-3)Gal(b1-4)[Fuc(a1-3)]GlcNAc
In short: as §1

B1: rPitB (Streptococcus pneumoniae), A0A0I7U739 (protein)
chain: MSEIEIINAKKIYHDVPVIENLNITIPKGSLFTLLGASGCGKTTLLRMIAGFNSIKDGEFYFDDTKINNMEPSKRNIGLVFQNYAIFPHLTVRDNVAFGLMQKKVPKEELIQQTNKYLELMQIAQYAD
- glycan array binding signal (z-score) [1]: -0.397
- glycan array binding signal (z-score) [2]: -0.541
- glycan array binding signal (z-score) [3]: -0.16
- glycan array binding signal (z-score) [4]: -0.133
- glycan array binding signal (z-score) (Man(a1-3)[Man(a1-6)]Man): 0.276
- glycan array binding signal (z-score) [5]: -1.04
- glycan array binding signal (z-score) [6]: 0.005
- glycan array binding signal (z-score) [7]: -0.497
- glycan array binding signal (z-score) [8]: -0.391
- glycan array binding signal (z-score) (Man(a1-6)Man): -1.19
- glycan array binding signal (z-score) (Man(b1-4)GlcNAc): -0.12
- glycan array binding signal (z-score) (Neu5Ac(a2-3)Gal): -0.05
- glycan array binding signal (z-score) [9]: 0.31
- glycan array binding signal (z-score) [10]: -0.604
- glycan array binding signal (z-score) [11]: 0.43
- glycan array binding signal (z-score) [12]: 0.622
- glycan array binding signal (z-score) [13]: 0.486
- glycan array binding signal (z-score) [14]: 0.208
- glycan array binding signal (z-score) [15]: -1.11
- glycan array binding signal (z-score) [16]: -0.301
- glycan array binding signal (z-score) [17]: 0.522
- glycan array binding signal (z-score) [18]: -0.649
- glycan array binding signal (z-score) [19]: -1.12
- glycan array binding signal (z-score) [20]: -0.119
- glycan array binding signal (z-score) [21]: 2.33
- glycan array binding signal (z-score) [22]: 0.501
- glycan array binding signal (z-score) [23]: -0.305
- glycan array binding signal (z-score) [24]: -0.12
- glycan array binding signal (z-score) (Neu5Ac(a2-3)Gal(b1-4)Glc): -0.216
- glycan array binding signal (z-score) [25]: -0.6
- glycan array binding signal (z-score) [26]: -0.14
- glycan array binding signal (z-score) [27]: -0.486
- glycan array binding signal (z-score) [28]: 0.094
- glycan array binding signal (z-score) [29]: -0.394
- glycan array binding signal (z-score) [30]: 0.143
- glycan array binding signal (z-score) [31]: -0.412
- glycan array binding signal (z-score) [32]: 0.277
- glycan array binding signal (z-score) [33]: -0.926
- glycan array binding signal (z-score) [34]: 0.244
- glycan array binding signal (z-score) [35]: 0.027
- glycan array binding signal (z-score) [36]: -0.589
- glycan array binding signal (z-score) [37]: -0.612
- glycan array binding signal (z-score) [38]: -0.738
- glycan array binding signal (z-score) [39]: 1.07
- glycan array binding signal (z-score) [40]: 0.046
